These are yes or no findings as the source states them, for the method shown. In cells and extracts the contact can be indirect. Some entries that bind do so weakly or less than the wild type. For some assays here: Tags and fused reporters may be left off the sequences shown.
Tests used:
[1] = molecular target: T1, FLAG-NuSAP (human (cDNA library from HEK 293T cells)) (UniProt Q9BXS6); assay: co-IP; HeLa cells transfected with FLAG-NuSAP, thymidine/nocodazole arrest and release into fresh medium, indicated time points; FLAG M2 beads with lysate 1 h at 4 °C; blotted with anti-Kid
T1 sequence: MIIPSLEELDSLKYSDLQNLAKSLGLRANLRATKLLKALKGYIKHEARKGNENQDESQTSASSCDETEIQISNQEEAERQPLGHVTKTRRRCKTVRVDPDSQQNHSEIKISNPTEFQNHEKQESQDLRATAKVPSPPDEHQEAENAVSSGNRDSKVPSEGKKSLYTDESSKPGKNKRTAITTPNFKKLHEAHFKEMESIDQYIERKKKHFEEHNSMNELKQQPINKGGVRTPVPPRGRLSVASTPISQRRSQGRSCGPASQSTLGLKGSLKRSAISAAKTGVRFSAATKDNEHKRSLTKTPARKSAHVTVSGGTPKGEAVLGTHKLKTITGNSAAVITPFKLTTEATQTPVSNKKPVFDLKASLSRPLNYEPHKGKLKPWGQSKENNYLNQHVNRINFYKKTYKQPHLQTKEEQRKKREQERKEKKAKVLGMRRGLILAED

[2] = molecular target: T2, NuSAP (Nucleolar and Spindle-Associated Protein), endogenous (human (endogenous in HeLa)) (UniProt Q9BXS6); assay: co-IP; endogenous proteins; synchronized HeLa cells shaken off and lysed in M-PER with 10 μg/ml nocodazole; lysate incubated with 2 μg rabbit IgG or NuSAP antibody bound to protein A-Sepharose beads, 1 h at 4 °C; blotted with anti-Kid
T2 sequence: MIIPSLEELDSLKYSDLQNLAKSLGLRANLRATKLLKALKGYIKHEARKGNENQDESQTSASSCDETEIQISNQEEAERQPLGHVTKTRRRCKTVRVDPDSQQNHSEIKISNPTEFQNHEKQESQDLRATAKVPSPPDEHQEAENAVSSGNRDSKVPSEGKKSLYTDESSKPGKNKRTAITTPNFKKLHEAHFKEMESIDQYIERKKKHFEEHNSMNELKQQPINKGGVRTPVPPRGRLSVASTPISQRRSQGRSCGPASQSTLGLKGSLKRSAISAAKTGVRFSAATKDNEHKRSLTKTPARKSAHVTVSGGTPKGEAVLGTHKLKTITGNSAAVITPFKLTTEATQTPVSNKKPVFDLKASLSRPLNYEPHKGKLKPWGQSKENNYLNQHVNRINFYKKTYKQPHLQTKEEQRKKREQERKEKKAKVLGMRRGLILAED

B1: Kid (kinesin-like DNA-binding protein), endogenous (protein, UniProt Q14807 1-665)
chain: MAAGGSTQQRRREMAAASAAAISGAGRCRLSKIGATRRPPPARVRVAVRLRPFVDGTAGASDPPCVRGMDSCSLEIANWRNHQETLKYQFDAFYGERSTQQDIYAGSVQPILRHLLEGQNASVLAYGPTGAGKTHTMLGSPEQPGVIPRALMDLLQLTREEGAEGRPWALSVTMSYLEIYQEKVLDLLDPASGDLVIREDCRGNILIPGLSQKPISSFADFERHFLPASRNRTVGATRLNQRSSRSHAVLLVKVDQRERLAPFRQREGKLYLIDLAGSEDNRRTGNKGLRLKESGAINTSLFVLGKVVDALNQGLPRVPYRDSKLTRLLQDSLGGSAHSILIANIAPERRFYLDTVSALNFAARSKEVINRPFTNESLQPHALGPVKLSQKELLGPPEAKRARGPEEEEIGSPEPMAAPASASQKLSPLQKLSSMDPAMLERLLSLDRLLASQGSQGAPLLSTPKRERMVLMKTVEEKDLEIERLKTKQKELEAKMLAQKAEEKENHCPTMLRPLSHRTVTGAKPLKKAVVMPLQLIQEQAASPNAEIHILKNKGRKRKLESLDALEPEEKAEDCWELQISPELLAHGRQKILDLLNEGSARDLRSLQRIGPKKAQLIVGWRELHGPFSQVEDLERVEGITGKQMESFLKANILGLAAGQRCGAS
[1]
  binding: binds
[2]
  binding: binds
